These results are taken from PubChem BioAssay AID2685 (National Center for Advancing Translational Sciences (NCATS), 2010).

This is one part of the list. The main result of the screen is listed elsewhere. These columns were measured beside it and carry no call. Most of these compounds were active or inconclusive in the main read-out, so they are no random draw. Words in brackets tell the shape of the fitted curve; partial curves, single points and poor fits give uncertain potencies.

A short description of the assay: qHTS Assay for Lipid Storage Modulators in Drosophila S3 Cells.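 For cell number change: cells counted by Cell Tracker Red CMTPX staining in the red channel.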 The following applies: BODIPY lipid droplet fluorescence, 18-24 h; for cell number change: measured here: cell count max response, cells fed with added oleic acid. The gist of the method:
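Laser-scanning cytometry quantifies lipid droplet accumulation (500–530 nm total intensity; droplet/cell object ratio) in oleic acid-fed (400 uM added) Drosophila S3 cells treated with a concentration series. 20 uM Triacsin C defined 100% inhibition.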
On the technique in general: Quantitative high-throughput screening tests each substance at several concentrations.

Where [1] appears, read: measured here: lipid fluorescence (Fed channel) AC50, cells fed with added oleic acid.
Setting [2] is: measured here: cell number channel AC50, cells fed with added oleic acid.

The AC50 is the concentration giving half of the maximal activity seen. The low end stands for activity at low concentration, the high end for activity only at high concentration. For `O=C(NCc1ccco1)C(c1ccco1)N(CCc1ccccc1)C(=O)Cn1nnc2ccccc21` (stereo not given), the cell number change was -29.8%. For the same compound, the half-maximal activity concentration (AC50) under setting [1] is 20.6 µM [falling, single point].
Turning to `CCCc1cc(-c2[nH]ncc2-c2ccc3c(c2)OCCCO3)c(O)cc1O`, the cell number change was -81.7%. Moreover, under setting [2], the half-maximal activity concentration (AC50) was 16.4 µM [falling, partial curve]. The concentration at half-maximal activity (AC50) under setting [1] is 18.4 µM [falling, partial curve].
Take `O=C(CN1C(=O)/C(=C/c2ccc(Cl)cc2)SC1=S)NC1C=CS(=O)(=O)C1` (stereo not given): the cell number change is -20.6%. Moreover, under setting [1], the AC50 is 29.1 µM [falling, single point].
`CC(C)=CCCC1(C)C=Cc2c(ccc3c2[nH]c2cc(O)c(C)cc23)O1` (stereo not given): the cell number change is -62.7%. Moreover, under setting [2], the AC50 is 29.1 µM [falling, single point]. Besides, the AC50 under setting [1] is 18.4 µM [falling, single point].
On to `O=C(CN1CCN(C(=O)c2ccc(-c3nc4ccccc4s3)o2)CC1)Nc1ccccc1Cl`, for which the cell number change is -41.9%. Further, under setting [2], the AC50 is 20.6 µM [falling, single point]. In addition, the AC50 under setting [1] was 4.11 µM [falling, single point].
Regarding `C=CCNC(=S)N/N=C/c1ccc(OCc2ccccc2Cl)cc1`, the cell number change is 7.9%. Besides, the AC50 under setting [1] was 14.6 µM [rising, partial curve, poor fit].
In the case of `CC(C)(C)c1nnc(NC(=O)Cc2ccccc2[N+](=O)[O-])s1`, the cell number change is -20.7%. Besides, the half-maximal activity concentration (AC50) under setting [1] was 3.26 µM [falling, single point].
On to `CN=CC1=C(O)c2ccccc2C1=O`, for which the cell number change came to 25.1%. Further, the concentration at half-maximal activity (AC50) under setting [1] was 3.66 µM [rising, full curve].
With `Cn1c(=O)n(C)c2cc([N+](=O)[O-])c(N3CCN(S(=O)(=O)c4ccc(C(C)(C)C)cc4)CC3)cc21`, the cell number change was -98.4%. Also, the AC50 under setting [2] is 4.61 µM [falling, full curve]. The half-maximal activity concentration (AC50) under setting [1] is 4.61 µM [falling, full curve].
Consider `O=C(O)CCn1ncc2ccccc2c1=O`, for which the cell number change is 23.2%.
With `Cc1ccc(C(=O)OCC(=O)N2C(C)CCCC2C)s1` (stereo not given), the cell number change worked out at 8.21%. For the same compound, the half-maximal activity concentration (AC50) under setting [1] was 0.116 µM [rising, partial curve, poor fit].
As for `Cc1nc2ccc(NC(=O)NCCCO)cc2s1`, the cell number change was determined as 11.9%.
Take `O=C(NCCCN1CCOCC1)c1cc(-c2ccc(F)cc2)nc2ccccc12`: the cell number change was 11.8%. The AC50 under setting [1] was 0.58 µM [falling, full curve].
For the compound `Cc1ccc(CN2CCCC(C(=O)N3CCCC3)C2)cc1` (stereo not given), the cell number change came out at 18%.
As to `COc1ccc2sc(N(CCCN(C)C)C(=O)c3ccc(S(=O)(=O)N4CCc5ccccc5C4)cc3)nc2c1`, the cell number change was -88%. In addition, the AC50 under setting [2] is 18.4 µM [falling, single point]. The AC50 under setting [1] was 20.6 µM [falling, single point].
In the case of `CCCCCN(C(=O)COC(=O)Cc1c(C)nc2ccccc2c1C)c1c(N)n(CCCC)c(=O)[nH]c1=O`, the cell number change came to 32.8%. For the same compound, under setting [2], the AC50 is 16.4 µM [rising, single point].
As to `COc1cccc(NC2=C(NCCO)C(=O)c3ccccc3C2=O)c1`, the cell number change is -46%. The concentration at half-maximal activity (AC50) under setting [2] is 9.2 µM [falling, partial curve]. Besides, under setting [1], the half-maximal activity concentration (AC50) was 4.61 µM [falling, partial curve, poor fit].
As to `COc1ccccc1C(=O)NNc1ncc(C)s1`, the cell number change is -15.3%. In addition, the AC50 under setting [2] was 6.51 µM [falling, single point]. In addition, under setting [1], the AC50 was 14.6 µM [falling, single point].
Consider `Fc1ccc(CSc2ccc3nnc(-c4ccccn4)n3n2)cc1`, for which the cell number change stood at 17.3%.
On to `CCN(CC)CCN(C(=O)C1=COCCO1)c1nc2c(OC)ccc(OC)c2s1`, for which the cell number change came to 2.78%.
Regarding `O=c1[nH]nc(N/N=C/c2ccc(Cl)cc2Cl)c(=O)[nH]1`, under setting [1], the half-maximal activity concentration (AC50) was 1.3 µM [rising, full curve, poor fit].
On to `CN(C)C(=O)COC(=O)c1ccccc1NC(=O)c1ccco1`, for which the cell number change worked out at 72.3%. Under setting [2], the concentration at half-maximal activity (AC50) is 20.6 µM [rising, single point].
On to `CSCCC(NC(=O)c1cccc(C)c1)C(=O)Nc1sccc1C(N)=O` (stereo not given), for which the half-maximal activity concentration (AC50) under setting [2] is 0.731 µM [rising, single point] and the half-maximal activity concentration (AC50) under setting [1] was 6.51 µM [rising, single point].
As to `Cc1ccc(-c2csc(N3CCN(c4ccc5nc(-c6ccncc6)n(CCN6CCCCC6)c5c4)CC3)n2)cc1`, the cell number change was -17.7%. Under setting [1], the concentration at half-maximal activity (AC50) was 6.51 µM [rising, single point].
For the compound `COC(=O)c1cc(S(=O)(=O)N2CCOCC2)c(Cl)cc1N1CCOCC1`, the cell number change was -1.35%. Further, under setting [2], the AC50 is 0.82 µM [falling, partial curve]. The AC50 under setting [1] is 20.6 µM [falling, partial curve].
Consider `COc1ccc(C(C(=O)NC2CCCC2)N(CCN2CCOCC2)C(=O)c2ccc(OC)c(OC)c2)cc1` (stereo not given), for which the cell number change was -1.62%. In addition, the half-maximal activity concentration (AC50) under setting [2] was 0.651 µM [falling, full curve, poor fit].
With `COc1ccc(CCNC(=O)/C=C\c2ccccc2)cc1OC`, the cell number change is -57.7%. Under setting [2], the AC50 was 7.31 µM [falling, partial curve]. The AC50 under setting [1] was 6.51 µM [falling, partial curve].
With `COc1ccc(O/C(=N\S(=O)(=O)c2ccccc2)c2ccccc2)cc1`, the cell number change was -86.6%. For the same compound, under setting [2], the AC50 is 6.51 µM [falling, full curve]. Further, the AC50 under setting [1] is 29.1 µM [falling, single point].
Consider `Cc1nnn(C23CC4CC(CC(C(=O)NN)(C4)C2)C3)n1`, for which the cell number change was determined as 34%. For the same compound, the AC50 under setting [1] is 20.6 µM [rising, single point].
Turning to `Cc1cc2oc(=O)c(CC(=O)NCCCO)c(C)c2c2occ(C(C)(C)C)c12`, the cell number change was -60.2%. Moreover, the half-maximal activity concentration (AC50) under setting [2] is 14.6 µM [falling, partial curve]. The AC50 under setting [1] was 13 µM [falling, partial curve].
As to `Fc1ccc(-c2nnc(-c3ccc(F)cc3)o2)cc1`, the AC50 under setting [1] was 29.1 µM [rising, single point].
The same measure, in the same setting: the result for `COc1ccc(C)c(S(=O)(=O)Nc2ccc(OCC(=O)O)cc2)c1` reads 1.46 µM [rising, partial curve]; that for `Nc1ncnc(N2CCc3ccccc32)c1[N+](=O)[O-]`, 0.731 µM [falling, single point].
Turning to `COc1cccc(OC)c1C(=O)Nc1ccccc1C(=O)N1CCCCCC1`, the cell number change was determined as 1.88%. For the same compound, the AC50 under setting [1] was 0.355 µM [rising, full curve, poor fit].
Turning to `CC(C)(C)c1ccc(OCCNC(=O)c2ncn[nH]2)cc1`, the cell number change is -30.1%. For the same compound, the AC50 under setting [2] was 11.6 µM [falling, partial curve]. Under setting [1], the half-maximal activity concentration (AC50) was 29.1 µM [rising, single point].
For `CCOC(=O)C1(Cc2cccc(OC)c2)CCCN(C(=O)c2cc(CC(C)C)[nH]n2)C1` (stereo not given), the cell number change stood at 2.65%. In addition, the half-maximal activity concentration (AC50) under setting [1] was 29.1 µM [falling, single point].
